At least one structure is not confirmed: it was looked up by name or label, or the drawing left a doubt.
Biological target: T1, Azospirillum brasilense phenylpyruvate decarboxylase (AbPPDC), wild type, SEQ ID 4 (GenBank L26240), 13-amino acid N-terminal histidine tag (Azospirillum brasilense, UniProt P51852)
T1 construct: made in house; host or cells: E. coli BL21(DE3)
T1 sequence (P51852 1-545): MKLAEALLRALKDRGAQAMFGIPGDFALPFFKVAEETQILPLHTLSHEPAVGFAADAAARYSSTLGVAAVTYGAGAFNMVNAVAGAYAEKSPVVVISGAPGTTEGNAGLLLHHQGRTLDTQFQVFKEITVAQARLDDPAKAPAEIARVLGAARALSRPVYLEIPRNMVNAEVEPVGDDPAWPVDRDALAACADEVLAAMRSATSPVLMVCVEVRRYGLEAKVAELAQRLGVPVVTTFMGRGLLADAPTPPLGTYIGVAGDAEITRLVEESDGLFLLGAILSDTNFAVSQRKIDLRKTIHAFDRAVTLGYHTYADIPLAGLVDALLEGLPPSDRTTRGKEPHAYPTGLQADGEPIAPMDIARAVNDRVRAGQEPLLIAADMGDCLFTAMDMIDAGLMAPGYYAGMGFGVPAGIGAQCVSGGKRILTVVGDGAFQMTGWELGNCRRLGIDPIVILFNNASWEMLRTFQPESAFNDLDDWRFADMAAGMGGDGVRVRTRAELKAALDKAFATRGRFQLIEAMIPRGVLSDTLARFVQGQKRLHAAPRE
Assay: HTP AbPPDC coupled enzyme assay (ADH6/NADPH), 2-ketoacid decarboxylation kinetics, wild type
Type: biochemical
Experimental: The evaluation of the AbPPDC variants is performed in two steps using the high-throughput enzyme assay described hereinbelow. Initially, all the variants are tested for activity against a single high concentration (2 mM) of 2-KH and 2-KN (as shown in Table 1). Following the initial evaluation, detailed kinetic analysis is performed on a select number of variants to determine the maximal rate (kcat), substrate concentration yielding half maximal rate (K0.5, equivalent of KM for enzymes following Michaelis-Menten kinetics), and the catalytic efficiency of the enzyme (kcat/K0.5) against 2-KO and 2-KN (as shown in Table 2). AbPPDC variants, having higher specificity (higher kcat/K0.5) for 2-KN, will be efficient in producing octanal and chemicals derived from it inside the cells. […]
A high-throughput AbPPDC coupled enzyme assay is developed for evaluating the substrate specificity of AbPPDC variants. […] The initial velocities of the AbPPDC catalyzed reactions are determined from the rates of oxidation of reduced nicotinamide adenine dinucleotide phosphate (NADPH) occurring during the ADH6 catalyzed reduction of aldehyde. […]
The kinetic parameters of the decarboxylation of 2-ketooctanoate (2-KO) and 2-ketononanoate (2-KN) by AbPPDC and its variants are also determined using the same HTP AbPPDC coupled enzyme assay, except that the concentrations of 2-KO or 2-KN are varied from 0 to 4 mM. […]

Row | SMILES | Spec (specificity: ratio of kcat/K0.5 for 2-KN to that for 2-KO) (2-KN over 2-KO) | h (Hill coefficient) (pH 6.8, 30° C, Hill equation, mean ± standard error)
1 | CCCCCCCC(=O)C(=O)O [2-KN, 2-ketononanoate] | 1.8 | –
2 | CCCCCCC(=O)C(=O)O [2-KO, 2-ketooctanoate] | – | 2.4 ± 0.1

— patent US10260060B2, “Genetically modified phenylpyruvate decarboxylase, processes to prepare, and uses thereof” (Dow Global Technologies LLC, priority 2014, dated 2019)
